Not every detail of the peptide structures is certain; ends, links or a residue may be inferred. Residues, ends and D or L forms follow the SMILES beside them.
Assays:
[1] = test system: hippocampal membranes with NMDA receptors; assay: Negative control: [3H]-FQSE binding on membranes with NMDA receptors; design: species or system rat; details: [3H]-FQSE and unlabeled FQSE on NMDA receptor membranes
[2] = test system: Wistar rats; assay: Learned helplessness model: Elevated Plus-Maze test; type: in vivo; details: Map 4.5 mg/kg i/p; FQSE 0.5 and 2.5 mg/kg i/n
Experimental: Weigh was measured on an analytical balance, with an accuracy of 0.0001 g, the solution was prepared with a margin of 0.5 ml. For the experiment, a freshly prepared FQSE (SEQ ID NO:10) solution was used; for the second day, this solution was stored in a refrigerator at +4° C. The tetracyclic antidepressant Maprotiline (Lyudiomil), a monoamine reuptake inhibitor, was used as a positive control. […] The classical paradigm of “learned helplessness” (LH) was used as an experimental model of depression ([…] et al. (1975). Learned helplessness in the rat. J. Comp. Physiol. […] The state of “learned helplessness” according to modern concepts adequately reflects anxiety-depressive syndrome, reproducing the main signs of a person's endogenous depression, including the severity of effects of helplessness, hopelessness, and characteristic endocrine disorders. To develop LH, rats were subjected to uncontrolled unavoidable aversive stress (electro cutaneous irritation). […] Stimulation was performed automatically using a software randomizer. […] The time spent by the animal inside and outside the closed arms (in the open arms and in the center), the number of transitions between the arms, the number of stretch-attended postures were evaluated. […]

[3] = test system: IL-6; assay: LPS-induced neuroinflammation in primary glial cells: IL-6 mRNA (qPCR); type: cell-based, murine
[4] = test system: BALB/C mice; assay: Open Field test in mice; type: in vivo; details: for total distance: ip 30 min before; for number of center entries / number of rearings: ip
Experimental: After an adaptation period, the test substance was intraperitoneally injected into mice. Behavioral parameters were measured in 30 minutes after injection. The tests were administered as follows: day 1—the Open field test, day 3—the Elevated plus maze test, day 5—the Marble burying test, days 12-13—the Porsolt swim (two-day modification) test.
In the Open field test, the installation is an arena with a diameter of 63 cm, illuminated by bright light (500 lux) (OpenScience, Russia). The following parameters were measured during 5-minute experiment: a total distance (cm), a time of motion (if the speed is more than 5 cm/s), an immobility (if the speed is less than 0.2 cm/sec), a mean and maximum velocity, and a number of episodes of motor activity and “freezing”. The same set of parameters, as well as latent period and time duration of stay, were recorded for the central sector of the arena. Defecations and rearing (animal raise upright on hind limbs) were assessed visually (File and Wardill (1975) Validity of head-dipping as a measure of exploration in a modified hole-board. Psychopharmacol., 44, 53-59). The test is designed to measure the level of motor and exploratory activity.
All substances were injected intraperitoneally in a volume of 10 μl of solution per 1 gram of animal weight 30 minutes prior to behavioral testing.

[5] = FQSE 1 mg/kg, Diazepam 0.75 mg/kg

NC(=O)CC[C@H](NC(=O)[C@@H](N)Cc1ccccc1)C(=O)N[C@@H](CO)C(=O)N[C@@H](CCC(=O)O)C(=O)O [FQSE] (H-FQSE-OH)
difference between total and non-specific binding [1]: 11% | appearance on the open arms [2]: did not reach statistical significance | basal IL-6 expression level in non-activated glial cells ([3]; FQSE even on 0.04 μM): able to reduce | LPS-induced expression of IL-6 ([3]; wide range of doses): high efficiency regarding suppression | total distance [4, 5]: 2423±133.81 cm | total distance ([4]; FQSE 5 mg/kg): 2464±124.67 cm | total distance ([4]; FQSE 10 mg/kg): 2441±185.97 cm | total distance ([4]; FQSE 20 mg/kg): 2478±100.41 cm | number of center entries [4, 5]: 13.1±2.26 | number of rearings [4, 5]: 11.7±2.3 | number of rearings ([4]; FQSE 10 mg/kg): 11.7±3.6 | number of center entries ([4]; FQSE 20 mg/kg): 11.6±2.5
